Results from PMC6450910.

By UniProt entry, the sequences of proteins in these tests, tags left out. Where a name states a change or a piece, a line headed by the entry shows the natural chain unless it says otherwise.
UniProt P34741: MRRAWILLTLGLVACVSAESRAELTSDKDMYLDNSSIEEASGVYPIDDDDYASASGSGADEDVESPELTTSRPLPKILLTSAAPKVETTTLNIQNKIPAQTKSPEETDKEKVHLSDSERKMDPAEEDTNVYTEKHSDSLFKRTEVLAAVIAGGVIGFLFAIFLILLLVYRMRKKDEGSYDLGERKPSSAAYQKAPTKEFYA
UniProt O08992: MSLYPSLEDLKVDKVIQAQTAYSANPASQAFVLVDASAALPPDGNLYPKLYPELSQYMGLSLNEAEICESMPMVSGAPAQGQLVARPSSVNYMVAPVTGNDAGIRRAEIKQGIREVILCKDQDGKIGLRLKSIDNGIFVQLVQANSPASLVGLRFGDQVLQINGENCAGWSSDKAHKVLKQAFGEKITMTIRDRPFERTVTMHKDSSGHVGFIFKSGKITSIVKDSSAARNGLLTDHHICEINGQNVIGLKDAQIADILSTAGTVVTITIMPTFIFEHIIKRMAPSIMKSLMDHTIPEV

Biological target: HA-tagged Sdc2 mutant devoid of its GAG chains (Ad-Sdc2^ΔGAG) (UniProt P34741)
Experiment: co-IP; Sdc2-/- primary mouse ECs transduced 16 h with adenovirus (MOI 1-2), starved 8 h, stimulated with VEGFA165 (50 ng/ml) 5 min; 1% Triton lysis buffer; anti-HA magnetic beads 2 h at 4 °C; western blot

**Q.** For “syntenin (mouse, endogenous) (from UniProt O08992 1-299)”, which binding is on record?
**A.** The binding was “binds”.

Results are given in words; binding and its absence hold for the method and conditions named. Binding seen in cells or lysates may run through a third protein. Binding can be weak; no strength is given.
